Measured values reported in paper PMC9262907, “Modulating mitofusins to control mitochondrial function and signaling” (Nature Communications, 2022).
No constants are given. Whether binding was seen depends on the method and setting. Some entries that bind do so weakly or less than the wild type. Where a sequence is shown, tags or fusion partners need not be part of it.

Target: mitofusin-2 (MFN2) of MEF mitochondria (mouse (endogenous in MEFs)) (UniProt Q80U63)
Experiment: native gel or EMSA; BN-PAGE of digitonin lysates of mitochondria isolated from MEFs, incubated with 2 mM GTP at 37 °C for 30 min (also with 10 μM MASM7 or 40 μM MFI8); blot with anti-MFN2

binding: binds
B1: mitofusin-2 (MFN2) of MEF mitochondria (natural protein, mouse (endogenous in MEFs), UniProt Q80U63 1-757, looked up)
chain: MSLLFSRCNSIVTVKKDKRHMAEVNASPLKHFVTAKKKINGIFEQLGAYIQESASFLEDTHRNTELDPVTTEEQVLDVKGYLSKVRGISEVLARRHMKVAFFGRTSNGKSTVINAMLWDKVLPSGIGHTTNCFLRVGGTDGHEAFLLTEGSEEKKSVKTVNQLAHALHQDEQLHAGSMVSVMWPNSKCPLLKDDLVLMDSPGIDVTTELDSWIDKFCLDADVFVLVANSESTLMQTEKQFFHKVSERLSRPNIFILNNRWDASASEPEYMEEVRRQHMERCTSFLVDELGVVDRAQAGDRIFFVSAKEVLSARVQKAQGMPEGGGALAEGFQVRMFEFQNFERQFEECISQSAVKTKFEQHTVRAKQIAEAVRLIMDSLHIAAQEQRVYCLEMREERQDRLRFIDKQLELLAQDYKLRIKQITEEVERQVSTAMAEEIRRLSVLVDEYQMDFHPSPVVLKVYKNELHRHIEEGLGRNLSDRCSTAIASSLQTMQQDMIDGLKPLLPVSMRNQIDMLVPRQCFSLSYDLNCDKLCADFQEDIEFHFSLGWTMLVNRFLGPKNSRRALLGYSDQVQRPLPLTPANPSMPPLPQSSLTQEELMVSMVTGLASLTSRTSMGILVVGGVVWKAVGWRLIALSFGLYGLLYVYERLTWTTKAKERAFKRQFVEYASEKLQLIISYTGSNCSHQVQQELSGTFAHLCQQVDITRDNLEQEIAAMNKKVEALDSLQSRAKLLRNKAGWLDSELNMFTHQYLQPSR
notes: mitofusin-2 (MFN2), endogenous in mouse embryonic fibroblasts, detected with an anti-MFN2 antibody; source: endogenous, mitochondria isolated from MEFs, digitonin lysate
